# From the supplement of paper PMC10689618
# Structures can show the parent of a compound that is named as a salt. The list shows a part of the results. Many values rest on one well or one pass, so single values are uncertain.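 Primary human fetal astrocytes engulfed labelled rat cortical synaptosomes, measured as a red/green ratio corrected for calcein live-cell signal and scaled to the plate median. Toxicity meant calcein falling over 30%; decreased phagocytosis meant below 70% of median above 5 µM.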
# Key:
# Human fetal astrocytes [1] = assay: loss of total cells relative to no-compound high-control median (toxicity); higher = more toxic (fewer cells); settings: 24 h
# Human fetal astrocytes [2] = assay: synaptosome phagocytosis (pHrodo/calcein intensity ratio) relative to plate median of data wells; higher = more phagocytosis; settings: 24 h
SMILES,loss of total cells (Human fetal astrocytes [1]; 1.39 µM) [%],loss of total cells (Human fetal astrocytes [1]; 2.78 µM) [%],loss of total cells (Human fetal astrocytes [1]; 5.56 µM) [%],loss of total cells (Human fetal astrocytes [1]; 11.11 µM) [%],loss of total cells (Human fetal astrocytes [1]; 22.22 µM) [%],synaptosome phagocytosis (Human fetal astrocytes [2]; 1.39 µM) [%],synaptosome phagocytosis (Human fetal astrocytes [2]; 2.78 µM) [%],synaptosome phagocytosis (Human fetal astrocytes [2]; 5.56 µM) [%],synaptosome phagocytosis (Human fetal astrocytes [2]; 11.11 µM) [%],synaptosome phagocytosis (Human fetal astrocytes [2]; 22.22 µM) [%]
CCOC(=O)C1=C(C)NC(C)=C(C(=O)OC)C1c1cccc(Cl)c1Cl (stereo not given) [Felodipine],10.5,-13.7,-1.6,0.4,-0.8,96.1,100,102,102,81.5
CC(=O)[C@]1(O)Cc2c(O)c3c(c(O)c2[C@@H](O[C@H]2C[C@H](N)[C@H](O)[C@H](C)O2)C1)C(=O)c1ccccc1C3=O [Idarubicin],-15.5,-34.2,0.8,2.2,7.2,102,92.3,96.6,188,230
Nc1cc(Cl)c(NC2=NCCN2)c(Cl)c1 [p-Aminoclonidine hydrochloride],-6.2,-7.5,-8.8,-4.9,7.9,104,101,112,109,118
N[C@@H](Cc1ccc(O)c(I)c1)C(=O)O [3-Iodo-L-tyrosine],-2.4,13.1,14.6,1.9,15.9,109,92.5,117,104,140
COC(=O)C(C)(N)Cc1ccc(O)cc1 (racemic) [alpha-Methyl-DL-tyrosine methyl ester hydrochloride],-28.9,-7.7,-14.6,6.7,16.8,114,74.6,81.7,83.8,116
COc1cc([C@@H]2c3cc4c(cc3[C@@H](O[C@@H]3O[C@@H]5CO[C@@H](C)O[C@H]5[C@H](O)[C@H]3O)[C@H]3COC(=O)[C@H]23)OCO4)cc(OC)c1O [Etoposide],3.8,-17.9,-5.8,-14.8,6.4,107,101,104,121,99.9
C=CC[C@H](N)C(=O)O [L-allylglycine],2.9,-3.9,-24.4,-7.6,7.9,129,110,158,127,96.1
O=C(Cc1ccc(Cl)c(Cl)c1)OCCN1CCCC1 [AC 915 oxalate],-8.1,-7.5,-17.1,-19.3,-4.1,115,109,113,90.2,111
CCCCCCCCCCCCCCC[C@H](O)[C@H](N)CO (racemic) [DL-erythro-Dihydrosphingosine],13.8,-20.5,13.2,-16.6,19.2,110,78.9,79.2,115,99.2
Cc1cccc(C2CN(C)CCc3c2cc(O)c(O)c3Cl)c1 (stereo not given),-7.8,-33.8,-25.8,-10.3,-23,99.9,87.8,102,95.9,91.6
CN(C)c1ccc(/C=C2/C(=O)Nc3ccccc32)cc1,-3.4,-9.3,4.5,1.9,15.6,121,107,95.5,83.6,76.1
NCCCCNS(=O)(=O)c1ccc2c(Cl)cccc2c1,-14.7,-12.6,-9.7,1.3,-1.1,91.1,90.3,100,111,107
C[C@@H](NC(=O)/C(C#N)=C/c1ccc(O)c(O)c1)c1ccccc1 [Tyrphostin AG 527],-24.5,-11.7,-5.6,-14.9,-32.1,116,98.2,116,121,95.1
CC(/C=C/c1cccc(Oc2ccc(F)cc2)c1)N(O)C(N)=O (stereo not given),0.7,-12,-8.8,-15.7,21.4,150,137,98.5,87,80
CC(N/C(=N\C#N)Nc1ccncc1)C(C)(C)C (stereo not given) [Pinacidil],-0.9,-23.7,-17.4,-11.1,-39.5,107,99.2,109,110,127
Nc1nc2[nH]c(=O)cnc2c(=O)[nH]1 [Isoxanthopterin],-21.3,-10.4,-3.3,9.5,11.2,98,118,133,110,124
O=C1c2ccccc2-c2n[nH]c3cccc1c23,7.9,6.8,6.6,-19.3,12,95.7,118,78.6,87.9,79.8
CN1CCN(c2nc3cc(C(F)(F)F)ccc3n3cccc23)CC1,-6.3,-22.2,-8.2,-7.6,13.6,108,94.8,97.9,65.9,70.4

# Two records drawn at random from those above, as already listed:
SMILES,loss of total cells (Human fetal astrocytes [1]; 1.39 µM) [%],loss of total cells (Human fetal astrocytes [1]; 2.78 µM) [%],loss of total cells (Human fetal astrocytes [1]; 5.56 µM) [%],loss of total cells (Human fetal astrocytes [1]; 11.11 µM) [%],loss of total cells (Human fetal astrocytes [1]; 22.22 µM) [%],synaptosome phagocytosis (Human fetal astrocytes [2]; 1.39 µM) [%],synaptosome phagocytosis (Human fetal astrocytes [2]; 2.78 µM) [%],synaptosome phagocytosis (Human fetal astrocytes [2]; 5.56 µM) [%],synaptosome phagocytosis (Human fetal astrocytes [2]; 11.11 µM) [%],synaptosome phagocytosis (Human fetal astrocytes [2]; 22.22 µM) [%]
NCCCCNS(=O)(=O)c1ccc2c(Cl)cccc2c1,-14.7,-12.6,-9.7,1.3,-1.1,91.1,90.3,100,111,107
CN(C)c1ccc(/C=C2/C(=O)Nc3ccccc32)cc1,-3.4,-9.3,4.5,1.9,15.6,121,107,95.5,83.6,76.1

# Later entries

SMILES,loss of total cells (Human fetal astrocytes [1]; 1.39 µM) [%],loss of total cells (Human fetal astrocytes [1]; 2.78 µM) [%],loss of total cells (Human fetal astrocytes [1]; 5.56 µM) [%],loss of total cells (Human fetal astrocytes [1]; 11.11 µM) [%],loss of total cells (Human fetal astrocytes [1]; 22.22 µM) [%],synaptosome phagocytosis (Human fetal astrocytes [2]; 1.39 µM) [%],synaptosome phagocytosis (Human fetal astrocytes [2]; 2.78 µM) [%],synaptosome phagocytosis (Human fetal astrocytes [2]; 5.56 µM) [%],synaptosome phagocytosis (Human fetal astrocytes [2]; 11.11 µM) [%],synaptosome phagocytosis (Human fetal astrocytes [2]; 22.22 µM) [%]
OCC1OC(n2cnc3c(NCCc4ccccc4)ncnc32)C(O)C1O (stereo not given) [N6-2-Phenylethyladenosine],-15.8,-30.2,-30.3,-24.9,-24.7,118,97.2,112,132,139
CN1CCN(CCCN2c3ccccc3Sc3ccc(Cl)cc32)CC1 [Prochlorperazine dimaleate],-7.8,-6.9,-7.3,0.4,29.6,99.6,104,76.8,60,31.9
"CCn1c(=O)c2[nH]c(-c3ccccc3)nc2n(CC)c1=O [1,3-Diethyl-8-phenylxanthine]",-16.1,-15.6,-22.6,-9.4,-7.9,120,93.6,104,109,109
C[C@]12C=CC(=O)C=C1CC[C@@H]1C2=CC[C@]2(C)[C@@H](C(=O)CN3CCN(c4cc(N5CCCC5)nc(N5CCCC5)n4)CC3)CC[C@@H]12,-2.2,-12.3,-3.4,-3.4,-22.2,86.2,96,74.2,91.5,103
CC(C)(C=O)Cc1cc(C(C)(C)C)c(O)c(C(C)(C)C)c1,-11,-12,-2.3,-16.6,7.9,80.8,65,106,88.3,87.5
CC(=N)NCc1cccc(CN)c1 [1400W dihydrochloride],-31.4,-14.7,-6.2,-21.8,-42,110,114,105,102,132
CCN(c1nc(N)c(C(=O)NC(=N)N)nc1Cl)C(C)C [5-(N-Ethyl-N-isopropyl)amiloride],0.7,-17.1,-11.5,-12.1,-1.1,105,93.5,115,87.2,75.2
N/C(=N\C(=O)c1nc(Cl)c(N)nc1N)NCc1ccccc1 [Benzamil hydrochloride],-14.3,3.6,-22.6,-5.8,11.7,103,122,74.4,84.3,94.1
CC[C@]1(O)C[C@@H]2CN(CCc3c([nH]c4ccccc34)[C@@](C(=O)OC)(c3cc4c(cc3OC)N(C)[C@H]3[C@@](O)(C(=O)OC)[C@H](OC(C)=O)[C@]5(CC)C=CCN6CC[C@]43[C@@H]65)C2)C1 [Vinblastine sulfate salt],0.9,6.9,22.5,34.1,-5.8,86.7,105,114,120,102
Nc1nccc2c1ncn2[C@@H]1O[C@H](CO)[C@@H](O)[C@H]1O [3-deazaadenosine],12.1,-1.7,-5.8,-6.7,4,108,104,116,104,122
N[C@@H](CCC(=O)N[C@@H](CSN=O)C(=O)NCC(=O)O)C(=O)O [S-Nitrosoglutathione],1.4,14,5.2,22.9,16.8,84.8,114,106,130,126
CNCC[C@H](Oc1ccc(C(F)(F)F)cc1)c1ccccc1 [S-(+)-Fluoxetine hydrochloride],-16.3,-22.2,-12.3,-30,4.8,76.7,92.8,91.9,90.8,57
CC(C)C(=O)Nc1ccc([N+](=O)[O-])c(C(F)(F)F)c1 [Flutamide],-17.2,-8.5,-17.3,-8.5,-1.6,103,104,107,97.8,107
Brc1ccc([C@H]2CN3CCSC3=N2)cc1 [S(-)-p-Bromotetramisole oxalate],-17.6,-16.2,5.1,-6.7,2.6,117,118,121,111,140
C[C@H](O)C(=O)C1=Nc2c(nc(N)[nH]c2=O)NC1 [Sepiapterin],-10.9,-9.3,-19.7,-10.3,0,105,126,127,81.1,98.5
Cc1cccc(C#Cc2ccccc2)n1 [6-Methyl-2-(phenylethynyl)pyridine hydrochloride],-9,1.4,2.3,12.4,15,108,107,59.7,87.7,112
CCCNC[C@H](O)COc1ccccc1C(=O)CCc1ccccc1 [(S)-(-)-propafenone hydrochloride],-13.4,-12.3,-1.7,-20.3,-21.4,93.3,80.7,71,97.4,89.2
